Results are given in words; binding and its absence hold for the method and conditions named. Some entries that bind do so weakly or less than the wild type.
Biological target: CD21 receptor, the complement receptor 2 (CR2) (human (endogenous in Elijah cells)) (UniProt P20023)
Assay: flow cytometry on cells

By UniProt entry, the sequences of proteins in these tests, tags left out. Residues count along the entry.
UniProt P20023, residues 21-1033: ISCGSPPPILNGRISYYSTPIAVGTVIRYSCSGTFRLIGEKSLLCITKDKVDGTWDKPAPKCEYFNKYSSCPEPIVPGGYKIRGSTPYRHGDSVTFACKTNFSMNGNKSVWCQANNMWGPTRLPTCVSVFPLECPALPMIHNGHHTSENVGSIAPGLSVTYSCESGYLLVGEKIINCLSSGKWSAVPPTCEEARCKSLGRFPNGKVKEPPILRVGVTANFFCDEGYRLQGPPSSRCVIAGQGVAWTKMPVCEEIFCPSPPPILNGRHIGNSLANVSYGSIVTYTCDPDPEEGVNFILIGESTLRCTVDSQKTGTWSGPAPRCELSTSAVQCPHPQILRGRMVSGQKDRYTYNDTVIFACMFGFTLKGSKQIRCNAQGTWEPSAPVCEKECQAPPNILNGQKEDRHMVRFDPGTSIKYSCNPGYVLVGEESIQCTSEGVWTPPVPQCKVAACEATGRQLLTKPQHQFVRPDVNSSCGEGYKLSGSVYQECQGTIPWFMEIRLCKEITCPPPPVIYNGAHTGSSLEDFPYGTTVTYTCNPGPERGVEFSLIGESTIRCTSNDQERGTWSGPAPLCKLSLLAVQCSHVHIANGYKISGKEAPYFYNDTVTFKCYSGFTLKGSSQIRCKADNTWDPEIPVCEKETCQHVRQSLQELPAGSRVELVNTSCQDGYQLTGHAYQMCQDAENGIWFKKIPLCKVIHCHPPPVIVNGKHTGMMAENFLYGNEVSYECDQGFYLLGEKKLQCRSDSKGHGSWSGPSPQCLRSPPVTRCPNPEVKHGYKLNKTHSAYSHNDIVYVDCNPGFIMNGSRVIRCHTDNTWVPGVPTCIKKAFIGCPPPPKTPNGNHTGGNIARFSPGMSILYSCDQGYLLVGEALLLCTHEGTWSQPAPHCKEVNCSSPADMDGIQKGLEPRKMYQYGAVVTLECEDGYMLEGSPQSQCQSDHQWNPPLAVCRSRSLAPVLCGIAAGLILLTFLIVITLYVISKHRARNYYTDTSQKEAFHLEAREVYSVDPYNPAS

Substance: viral gp350 protein encoded by BLLF1 (Epstein-Barr virus, B95.8 strain, recombinant 2089) (from UniProt P03200-1 1-907)
- binding: binds
